Data source: PubChem BioAssay AID1259405 (NCATS, 2018)
Aim: 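Silenced genes that increase secreted GFP made by CHO cells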 (primary screen). Cells: Chinese hamster CHO-K1 ovary cells with stable secreted eGFP expression. Knock-down reagent: single siRNA against mouse genes, 0.8 pmol siRNA per well (2 µl of 400 nM stock). Time to read-out: 3 days. Read-out: 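Percent of the per-plate non-targeting control median for intracellular GFP per well by laser scanning cytometry and for cell viability by ATP luminescence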. Scale: GFP, % of control: higher = more GFP per well, higher productivity; viability (ATP), % of control: higher = more viable cells (more ATP). Hit rule: 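a knock-down is called active if GFP reaches 120% or more of non-targeting control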.
In all, the deposit lists about 50,000 reagents; this is a random part of them. Of all reagents, about 4,000 (8%) got an active call. 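Mouse siRNA library applied to hamster cells; one well for each siRNA.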 Entries without a mark were called inactive. The numbers tell different reagents against one gene apart.

Target gene | reagent no. | GFP, % of control | viability (ATP), % of control
Liph (lipase H) | 1 | 77.1 | 98
Liph (lipase H) | 2 | 94.5 | 99.3
Liph (lipase H) | 3 | 67.2 | 75.6
Nap1l1 (nucleosome assembly protein 1-like 1) | 1 | 187 (active) | 88.9
Nap1l1 (nucleosome assembly protein 1-like 1) | 2 | 53.8 | 55.6
Nap1l1 (nucleosome assembly protein 1-like 1) | 3 | 70.8 | 82.2
Fech (ferrochelatase) | 1 | 48.8 | 89.5
Fech (ferrochelatase) | 2 | 66.1 | 78.6
Fech (ferrochelatase) | 3 | 74.3 | 76.2
Fgd2 (FYVE, RhoGEF and PH domain containing 2) | 1 | 104 | 133
Fgd2 (FYVE, RhoGEF and PH domain containing 2) | 2 | 88.1 | 69.5
Fgd2 (FYVE, RhoGEF and PH domain containing 2) | 3 | 79.9 | 63.9
Cxcr6 (C-X-C motif chemokine receptor 6) | 1 | 114 | 78.4
Cxcr6 (C-X-C motif chemokine receptor 6) | 2 | 74.5 | 72.6
Cxcr6 (C-X-C motif chemokine receptor 6) | 3 | 68 | 62.2
Lum (lumican) | 1 | 81.1 | 62.2
Lum (lumican) | 2 | 64.2 | 57.1
Lum (lumican) | 3 | 62.3 | 64.3
Ttc23 (tetratricopeptide repeat domain 23) | 1 | 110 | 108
Ttc23 (tetratricopeptide repeat domain 23) | 2 | 94.4 | 87
Ttc23 (tetratricopeptide repeat domain 23) | 3 | 93.6 | 96.4
1700025G04Rik (RIKEN cDNA 1700025G04 gene) | 1 | 59.9 | 86.8
1700025G04Rik (RIKEN cDNA 1700025G04 gene) | 2 | 60.1 | 113
1700025G04Rik (RIKEN cDNA 1700025G04 gene) | 3 | 89.1 | 112
Tpm4 (tropomyosin 4) | 1 | 77 | 60
Tpm4 (tropomyosin 4) | 2 | 97.2 | 85.3
Pdlim1 (PDZ and LIM domain 1 (elfin)) | 1 | 102 | 65.6
Pdlim1 (PDZ and LIM domain 1 (elfin)) | 2 | 80.8 | 79.3
Itprid2 (ITPR interacting domain containing 2) | 1 | 45.1 | 89.2
Itprid2 (ITPR interacting domain containing 2) | 2 | 86.3 | 83.4
Itprid2 (ITPR interacting domain containing 2) | 3 | 55.5 | 93.8
Slc46a1 | 1 | 112 | 142
Slc46a1 | 2 | 103 | 92.9
Ube2b (ubiquitin-conjugating enzyme E2B) | 1 | 91.8 | 65.5
Ube2b (ubiquitin-conjugating enzyme E2B) | 2 | 95.1 | 103
Ube2b (ubiquitin-conjugating enzyme E2B) | 3 | 91.4 | 109
Timm17a (translocase of inner mitochondrial membrane 17a) | 1 | 99.5 | 85.7
Timm17a (translocase of inner mitochondrial membrane 17a) | 2 | 82.1 | 74.4
Timm17a (translocase of inner mitochondrial membrane 17a) | 3 | 70 | 61.9
Slc18a1 | 1 | 91.6 | 68.2
Slc18a1 | 2 | 59.9 | 53.3
Slc18a1 | 3 | 84.6 | 79.1
Hmbs (hydroxymethylbilane synthase) | 1 | 77.8 | 64.8
Hmbs (hydroxymethylbilane synthase) | 2 | 108 | 92
Hmbs (hydroxymethylbilane synthase) | 3 | 72 | 87.8
Os9 (amplified in osteosarcoma) | 1 | 58.6 | 121
Os9 (amplified in osteosarcoma) | 2 | 79.5 | 97.8
Os9 (amplified in osteosarcoma) | 3 | 102 | 87.9
Wsb1 (WD repeat and SOCS box-containing 1) | 1 | 63 | 50.4
Wsb1 (WD repeat and SOCS box-containing 1) | 2 | 101 | 68.5
Wsb1 (WD repeat and SOCS box-containing 1) | 3 | 108 | 94.1
Acot12 (acyl-CoA thioesterase 12) | 1 | 56.7 | 66.6
Acot12 (acyl-CoA thioesterase 12) | 2 | 96.5 | 82.7
Acot12 (acyl-CoA thioesterase 12) | 3 | 69 | 46.8
Oas1h (2'-5' oligoadenylate synthetase 1H) | 1 | 121 (active) | 95.8
Oas1h (2'-5' oligoadenylate synthetase 1H) | 2 | 44.2 | 62.1
Oas1h (2'-5' oligoadenylate synthetase 1H) | 3 | 54 | 54.9
Cpeb2 (cytoplasmic polyadenylation element binding protein 2) | 1 | 56 | 57.3
Cpeb2 (cytoplasmic polyadenylation element binding protein 2) | 2 | 29 | 43.3
Cpeb2 (cytoplasmic polyadenylation element binding protein 2) | 3 | 36.4 | 73
Cct5 (chaperonin containing TCP1 subunit 5) | 1 | 60.3 | 107
Cct5 (chaperonin containing TCP1 subunit 5) | 2 | 69.9 | 41.5
Cct5 (chaperonin containing TCP1 subunit 5) | 3 | 93.1 | 102
Speg (SPEG complex locus) | 1 | 115 | 52.8
Speg (SPEG complex locus) | 2 | 40.4 | 90.6
Speg (SPEG complex locus) | 3 | 83.2 | 47.7
Skint10 (selection and upkeep of intraepithelial T cells 10) | 1 | 70.6 | 61.1
Skint10 (selection and upkeep of intraepithelial T cells 10) | 2 | 70.4 | 71.3
Skint10 (selection and upkeep of intraepithelial T cells 10) | 3 | 91.8 | 97.9
Tmem132e (transmembrane protein 132E) | 1 | 67 | 75.4
Tmem132e (transmembrane protein 132E) | 2 | 60.9 | 65.3
Tmem132e (transmembrane protein 132E) | 3 | 91.4 | 39.2
Or5p62 (olfactory receptor family 5 subfamily P member 62) | 1 | 131 (active) | 69.6
Or5p62 (olfactory receptor family 5 subfamily P member 62) | 2 | 81.6 | 74
Or5p62 (olfactory receptor family 5 subfamily P member 62) | 3 | 72.4 | 68.1
Nfkbia | 1 | 83.2 | 70.5
Nfkbia | 2 | 122 (active) | 77.7
Nfkbia | 3 | 42 | 52
Rras (RAS oncogene related) | 1 | 98.5 | 62.5
Rras (RAS oncogene related) | 2 | 100 | 86.1
Rras (RAS oncogene related) | 3 | 82.5 | 80.7
Bik (BCL2-interacting killer) | 1 | 82.7 | 82.4
Bik (BCL2-interacting killer) | 2 | 60.3 | 85.1
Mien1 (migration and invasion enhancer 1) | 1 | 94.2 | 78.2
Mien1 (migration and invasion enhancer 1) | 2 | 98.5 | 86.2
Mien1 (migration and invasion enhancer 1) | 3 | 63.1 | 84.8

Records listed above with an active call (4):
Target gene | reagent no. | GFP, % of control | viability (ATP), % of control
Nap1l1 (nucleosome assembly protein 1-like 1) | 1 | 187 (active) | 88.9
Oas1h (2'-5' oligoadenylate synthetase 1H) | 1 | 121 (active) | 95.8
Or5p62 (olfactory receptor family 5 subfamily P member 62) | 1 | 131 (active) | 69.6
Nfkbia | 2 | 122 (active) | 77.7
